At least one read-out could not be matched to a standard name with certainty.
tested on: Phospho-eIF2α (Ser51); experiment: Phospho-eIF2α (Ser51) Sandwich ELISA in K562 cells; format: cell-based; conditions: serum-free RPMI, 10 μM compound, 6 hours, control = 1
Method: Pathscan Phospho-eIF2α (Ser51) Sandwich ELISA Kit #7286 from Cell signaling was used. The K562 cell line was cultured in serum-free RPMI medium at 37° C. in the presence of 5% CO2. Cells were treated with test compounds at a concentration of 10 μM. Six hours after compound treatment, the cells were lysed with a lysis buffer included in the kit to obtain 50 μg of protein by quantification. Afterwards, ELISA assay was performed according to the manufacturer's protocol to obtain absorbance. The absorbance for each obtained compound was standardized to a value of which the control (DMSO-treated) is set to 1.

Going from `CC(C)(C)c1ccccc1Nc1c(N[C@H]2CC[C@H](Oc3ccc(S(C)(=O)=O)cc3)CC2)c(=O)c1=O` [Compound 77, 3-((2-(tert-Butyl)phenyl)amino)-4-(((1,4-trans)-4-(4-(methylsulfonyl)phenoxy)cyclohexyl)amino)cyclobut-3-ene-1,2-dione] to `CC(C)(C)c1cccc(Nc2c(N[C@H]3CC[C@H](Oc4ccc(C(F)(F)F)cc4)CC3)c(=O)c2=O)c1` [Compound 28, 3-((3-(tert-Butyl)phenyl)amino)-4-(((1,4-trans)-4-(4-(trifluoromethyl)phenoxy)cyclohexyl)amino)cyclobut-3-ene-1,2-dione], the “eIF2α phosphorylation, absorbance standardized to control (DMSO-treated) set to 1, at 10 μM” value rises from 1.70 to 1.92.

For `CC(C)(C)c1cccc(Nc2c(N[C@H]3CC[C@H](Oc4ccc(C(F)(F)F)cc4)CC3)c(=O)c2=O)c1` [Compound 33, 3-((3-Methoxyphenyl)amino)-4-(((1,4-trans)-4-(4-(trifluoromethyl)phenoxy)cyclohexyl)amino)cyclobut-3-ene-1,2-dione], the “eIF2α phosphorylation, absorbance standardized to control (DMSO-treated) set to 1, at 10 μM” value was 0.83.
